Results are given in words; binding and its absence hold for the method and conditions named. Binding seen in cells or lysates may run through a third protein. Some entries that bind do so weakly or less than the wild type.
T1: P2X4 receptor (mouse (endogenous in BMDM)) (UniProt Q9JJX6)
T1 sequence: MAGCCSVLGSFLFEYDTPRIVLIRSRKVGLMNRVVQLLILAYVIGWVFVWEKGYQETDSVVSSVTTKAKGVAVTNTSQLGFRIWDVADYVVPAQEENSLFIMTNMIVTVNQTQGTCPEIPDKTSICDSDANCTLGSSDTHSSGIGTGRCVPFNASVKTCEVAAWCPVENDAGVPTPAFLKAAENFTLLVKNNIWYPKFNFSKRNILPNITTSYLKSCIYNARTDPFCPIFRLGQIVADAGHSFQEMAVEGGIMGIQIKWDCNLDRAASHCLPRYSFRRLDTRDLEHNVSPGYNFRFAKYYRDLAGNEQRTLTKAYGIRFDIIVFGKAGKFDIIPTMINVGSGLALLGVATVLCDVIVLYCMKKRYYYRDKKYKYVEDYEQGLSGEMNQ

T2: Apolipoprotein E (mouse (endogenous in BMDM)) (UniProt P08226)
T2 sequence: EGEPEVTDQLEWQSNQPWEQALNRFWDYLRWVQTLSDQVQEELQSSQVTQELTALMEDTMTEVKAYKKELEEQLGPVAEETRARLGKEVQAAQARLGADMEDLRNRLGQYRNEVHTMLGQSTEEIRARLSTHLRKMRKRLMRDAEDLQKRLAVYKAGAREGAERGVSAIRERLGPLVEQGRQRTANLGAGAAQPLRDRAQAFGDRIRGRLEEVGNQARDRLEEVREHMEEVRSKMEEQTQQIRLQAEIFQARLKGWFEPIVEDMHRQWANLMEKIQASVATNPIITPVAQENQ


Legend:
[1] = biological target: T1, P2X4 receptor (mouse (endogenous in BMDM)); assay: co-IP; BMDM membrane extracts from WT and P2X4 KO mice immunoprecipitated with anti-P2X4 or anti-ApoE antibodies crosslinked to magnetic beads, 4 °C o/n; immunoblotted with anti-ApoE and anti-P2X4
[2] = biological target: T2, Apolipoprotein E (mouse (endogenous in BMDM)); assay: as above

Row | binding [1] | binding [2] | Binder
1 | binds |  | Apolipoprotein E (protein, UniProt P08226 19-311) EGEPEVTDQLEWQSNQPWEQALNRFWDYLRWVQTLSDQVQEELQSSQVTQELTALMEDTMTEVKAYKKELEEQLGPVAEETRARLGKEVQAAQARLGADMEDLRNRLGQYRNEVHTMLGQSTEEIRARLSTHLRKMRKRLMRDAEDLQKRLAVYKAGAREGAERGVSAIRERLGPLVEQGRQRTANLGAGAAQPLRDRAQAFGDRIRGRLEEVGNQARDRLEEVREHMEEVRSKMEEQTQQIRLQAEIFQARLKGWFEPIVEDMHRQWANLMEKIQASVATNPIITPVAQENQ
2 |  | binds | P2X4 receptor (receptor, UniProt Q9JJX6 1-388) MAGCCSVLGSFLFEYDTPRIVLIRSRKVGLMNRVVQLLILAYVIGWVFVWEKGYQETDSVVSSVTTKAKGVAVTNTSQLGFRIWDVADYVVPAQEENSLFIMTNMIVTVNQTQGTCPEIPDKTSICDSDANCTLGSSDTHSSGIGTGRCVPFNASVKTCEVAAWCPVENDAGVPTPAFLKAAENFTLLVKNNIWYPKFNFSKRNILPNITTSYLKSCIYNARTDPFCPIFRLGQIVADAGHSFQEMAVEGGIMGIQIKWDCNLDRAASHCLPRYSFRRLDTRDLEHNVSPGYNFRFAKYYRDLAGNEQRTLTKAYGIRFDIIVFGKAGKFDIIPTMINVGSGLALLGVATVLCDVIVLYCMKKRYYYRDKKYKYVEDYEQGLSGEMNQ

Source: paper PMC10163120
